This passage reports activity % (negative = inhibition) results from PubChem BioAssay AID1794845 (National Center for Advancing Translational Sciences (NCATS), 2023).

Chains of the proteins cited; added tags and fusions are not shown. Lines headed by an entry give the natural chain unless they say otherwise; changes in a name come on top.
UniProt C7C422: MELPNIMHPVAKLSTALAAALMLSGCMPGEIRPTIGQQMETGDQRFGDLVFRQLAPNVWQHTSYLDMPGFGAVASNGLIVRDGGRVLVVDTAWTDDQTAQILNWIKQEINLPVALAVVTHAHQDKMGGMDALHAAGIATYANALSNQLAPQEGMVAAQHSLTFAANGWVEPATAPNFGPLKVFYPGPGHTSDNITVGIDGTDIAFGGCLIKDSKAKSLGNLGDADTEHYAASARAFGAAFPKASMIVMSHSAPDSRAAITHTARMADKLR

SMILES strings stand for the structures. Among all 6,900 compounds or so, fewer than 10 were called active. Calls come from the whole dose curve; as a rule, active = well fitted curve in the direction sought with a large enough effect; inconclusive = small, poorly fitted or top-dose-only effect, or another doubt; inactive = no such curve, though single readings can be large or run the other way. This is one part of the list.

The target of this assay is Metallo-beta-lactamase type 2 (Klebsiella pneumoniae) (UniProt C7C422). The experiment in a line: qHTS to identify inhibitors of the New Delhi Metallo-beta-lactamase (NDM): primary screen against the NCATS Gemini Collection. Note: % of control where 0% means no effect. Conditions: NDM-1 enzyme, meropenem hydrolysis, absorbance 300 nm; at 38.4 µM (top of the series) unless noted. Summed up: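 Meropenem hydrolysis (50 uM final) by 2 nM NDM-1 read as 300 nm absorbance after 30 min, following >30 min compound–enzyme preincubation in HEPES pH 7.0 with 1 uM ZnSO4 and 0.01% Tween20.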
A general note: qHTS replaces the single test concentration by a dilution series.
Consider `Cc1ccc([C@@H]2CN(C(=O)c3ccco3)[C@@H]3C4CCN(CC4)[C@@H]32)cc1`, for which the activity % (negative = inhibition) was inactive: 1.13%.
With `COC[C@H]1C[C@@H](NCc2cn(C)c3ccccc23)[C@H](O)[C@@H]1O` the figure was inactive: 4.4% [at 57.5 µM]; with `Cc1ncc2c(n1)C[C@@H]1CC[C@H]2N1C(=O)C1(c2ccccc2)CC1`, inactive: 6.22%; with `O=C(Nc1ccc2n(c1=O)C[C@H]1C[C@@H]2CN(C(=O)NC2CCCCC2)C1)c1ccco1`, inactive: 37.6% [at 57.5 µM].
Then `c1cnc2c(c1)NC1(CCCNC1)C(=NC1CCCC1)N2` (stereo unspecified), with inactive: -0.619%; and `Cn1nc(-c2ccc3ccccc3c2)cc1[C@H]1CN2CC[C@H]1C[C@@H]2CNC(=O)c1ccco1`, with inactive: 8.72%; and `O=C1Nc2ccccc2C12CCN(Cc1cccnc1)C2` (stereo unspecified), with inactive: 11.9% [at 57.5 µM].
Turning to `CC1CCN(CC2CCCCCN2C(=O)Cc2ccccc2)CC1` (stereo unspecified), the activity % (negative = inhibition) was inactive: 10.8%.
Then `Cc1cc(C)n(CCC(=O)N2[C@H]3CC[C@@H]2c2cnc(-c4ccccc4)nc2C3)n1`, with inactive: 8.05%.
With `Cc1cccnc1CN1CCN2C(=O)N(c3ccccc3)C[C@H]2C1` the figure was inactive: -3.51% [at 57.5 µM]; with `O=S(=O)(NC[C@H]1C[C@@H]2CCN1C[C@@H]2CN1CCOCC1)c1ccccc1`, inactive: 1.12% [at 57.5 µM].
With `CCOc1ccc2c(n1)CCNC2`, the activity % (negative = inhibition) is inactive: 15.8%.
With `O=[S+]([O-])(C1CC1)N1C2CCC1CN(Cc1cccnc1)C2` the figure was inactive: -0.192%; with `CNC1CCc2ccccc21` (stereo unspecified), inactive: 0.762% [at 77.1 µM]; with `c1ccc(-c2ncc3c(n2)C[C@@H]2CC[C@H]3N2)cc1`, inactive: 3.02%.
With `O=C(NCc1ccc(F)cc1)[C@H]1CN2CCC1C[C@@H]2Cn1cc(CSc2ccccc2)nn1` (stereo partly specified) the figure was inactive: -1.93%.
With `COC1CN(c2ccc(C)cc2)C12CCNCC2` (stereo unspecified) the figure was inactive: 2.7%; with `COc1ccc(NC(=O)N2C[C@@H]3C[C@H](C2)c2c(NC(=O)CSC)ccc(=O)n2C3)cc1`, inactive: 11.6%; with `Cc1ccc(C)c(CC(=O)N2CCN(CCO)CC(O)C2)c1` (stereo unspecified), inactive: -0.882%.
For `CC[C@H]1CN2CC[C@H]1C[C@@H]2CNCc1ccc(-c2ccccc2)cc1`, the activity % (negative = inhibition) is inactive: -0.692% [at 57.5 µM].
Consider `COc1cccc(CC(=O)N2CC[C@H]3C(=O)NCCCCCN(Cc4cccnc4)[C@@H]3C2)c1`, for which the activity % (negative = inhibition) is inactive: 0.121%.
Then `COc1cccc([C@@H]2CCN(Cc3[nH]c4ccccc4c3C)C[C@H]2O)c1`, with inactive: -1.13%.
For `COCC(=O)NC[C@H]1C[C@@H]2CCN1C[C@@H]2CN1CCCCC1`, the activity % (negative = inhibition) is inactive: -3.93% [at 57.5 µM].
With `O=C1N(Cc2ccccn2)C[C@H]2CN(Cc3nccs3)CCN12` the figure was inactive: -0.427% [at 57.5 µM].
With `CC(=O)N1CCCC2(CC(c3cccnc3)=NO2)C1` (stereo unspecified) the figure was inactive: -0.134% [at 57.5 µM].
Then `COc1ccc(-c2cc([C@H]3CN4CC[C@H]3C[C@@H]4CN)nc(C)n2)cc1OC`, with inactive: 9.84% [at 57.5 µM]; and `Cn1nc(-c2ccc(F)cc2)cc1[C@H]1CN2CC[C@H]1C[C@@H]2CNC(=O)c1cccs1`, with inactive: -1.12% [at 57.5 µM].
Regarding `COc1cccc([C@H]2CN(c3cc(C)nc(N)n3)[C@@H]3C4CCN(CC4)[C@H]23)c1`, the activity % (negative = inhibition) is inactive: 1.45%.
With `O=C1CO[C@H]2CN(Cc3ccccc3)C[C@H]2N1Cc1cccnc1` the figure was inactive: -2.74% [at 57.5 µM]; with `O=C(NCc1ccccc1)c1cn(C2CNC2)nn1`, inactive: -0.0705%; with `CCN1CCCNCC12CCOCC2`, inactive: 17.5%.
